Here are results for 62 compounds from PubChem BioAssay AID445 (National Center for Advancing Translational Sciences (NCATS), 2006).

Some of the results follow. Further columns of the screen follow, without active or inactive calls. Compounds called inactive in the main read-out are mostly missing here. Words in brackets tell the shape of the fitted curve; partial curves, single points and poor fits give uncertain potencies.

The nature of the assay: IkB Signaling. Particulars: ABC-DLBCL IkBa-CBG/CBR dual luciferase ratio (green luciferase fused to IkBa over red control in OCI-Ly3 lymphoma cells), 4 h. The essentials:
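In this assay, an IκBα–CBG68 fusion accumulates when IKK-driven degradation is blocked; native CBR normalizes for cell number. OCI-Ly3 cells were treated 4 h with compound and doxycycline, then green and red light read after Chroma-Glo addition.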

Setting [1] is: measured here: control luc red channel unless noted.

Take `Cc1cc2ccccc2n1CCNC(=O)c1ccc(F)cc1`: the AC50 under setting [1] is 2.51 µM [falling, partial curve].

For the compound `Fc1ccc(-c2cn3cc(Cc4ccccc4Cl)sc3n2)cc1`, under setting [1], the AC50 is 0.501 µM [falling, full curve].

In the case of `Cc1cc(O)c(C(c2ccc(Cl)cc2)N2CCN(c3ccccc3)CC2)c(=O)n1Cc1ccco1` (stereo not drawn), under setting [1], the AC50 was 39.8 µM [rising, single point] [measured here: IkB-luc green channel].

Take `CC1=C(c2ccc(C)cc2)S(=O)(=O)N(Cc2ccc(C(=O)Nc3ccccc3C)cc2)C1=O`: the AC50 under setting [1] is 3.16 µM [falling, full curve, poor fit].

For the compound `c1ccc2c(c1)oc1c(NCCCN3CCOCC3)ncnc12`, the AC50 under setting [1] is 15.8 µM [falling, partial curve].

`Cc1cc(C)n2nc(SCC(=O)c3ccccc3)nc2n1`: under setting [1], the AC50 was 10 µM [falling, partial curve].

As to `COc1ccc(NC(=O)Cn2c(=O)oc3cc(S(=O)(=O)N4CCCCC4C)ccc32)cc1` (stereo not drawn), the AC50 under setting [1] was 3.16 µM [falling, full curve, poor fit].

As for `COC(=O)c1ccccc1NC(=O)CCCN1C(=O)C(c2ccccc2)Oc2cccnc21` (stereo not drawn), under setting [1], the AC50 was 25.1 µM [falling, partial curve].

`CC(C)c1cc(C(=O)NC2CCCCC2)no1`: under setting [1], the AC50 was 7.94 µM [falling, partial curve].

For the compound `COC(=O)c1scc(-c2ccc(C)cc2)c1S(=O)(=O)Nc1cc(Cl)c(OC)cc1OC`, under setting [1], the AC50 is 10 µM [falling, partial curve].

Regarding `CCCCOc1ccc(Cn2c(=O)sc3ccccc32)cc1OC`, the AC50 under setting [1] was 12.6 µM [falling, single point].

Take `O=C(NCc1ccc2c(c1)OCO2)c1cccc(C(=O)NCc2ccc3c(c2)OCO3)c1`: the AC50 under setting [1] is 6.31 µM [falling, partial curve].

Regarding `CCSc1ncc(Cl)c(C(=O)Nc2nc3ccc(S(C)(=O)=O)cc3s2)n1`, the AC50 under setting [1] was 0.0398 µM [falling, full curve].

As for `Cc1ccc(NC(=O)C2CCCN(S(=O)(=O)c3cccc4nsnc34)C2)cc1C` (stereo not drawn), the AC50 under setting [1] was 6.31 µM [falling, full curve].

Take `N#C/C(=C(/O)COC(=O)Cc1c[nH]c2ccccc12)c1nc2ccccc2[nH]1`: the AC50 under setting [1] was 20 µM [falling, single point].

On to `CC(C)OCCCNc1ncnc2sc3c(c12)CCCC3`, for which the AC50 under setting [1] was 15.8 µM [falling, single point].

For the compound `Cn1c(=O)c(C(=O)Nc2ccccn2)c(O)c2ccccc21`, under setting [1], the AC50 is 2.51 µM [falling, partial curve].

For `Cc1ccc(C)c(N2CCN(C(=O)CN3C(=O)COc4ccc(S(=O)(=O)N5CCCC5)cc43)CC2)c1`, the half-maximal activity concentration (AC50) under setting [1] was 25.1 µM [falling, partial curve, poor fit].

With `CCc1cccc(NC(=O)CN(c2ccc(C)c(C)c2)S(=O)(=O)c2ccsc2C(=O)OC)c1`, the AC50 under setting [1] is 15.8 µM [falling, partial curve].

Consider `CCOC(=O)c1ccc(N2C(=O)c3[nH]nc(-c4ccc(C)cc4)c3C2c2cccs2)cc1` (stereo not drawn), for which the AC50 under setting [1] is 15.8 µM [falling, single point].

For the compound `CCCc1nc2nc(C)c(NS(=O)(=O)c3ccc(CC(C)C)cc3)c(=O)n2[nH]1`, the AC50 under setting [1] was 31.6 µM [falling, single point].

For the compound `O=S(=O)(c1ccc(Cl)cc1)c1nc(-c2cccs2)oc1SCc1ccc(F)cc1`, the AC50 under setting [1] was 0.0316 µM [falling, full curve, poor fit].

For `COc1ccc(NS(=O)(=O)c2cc(C)ccc2NC(=O)c2cc(C)oc2C)cc1`, the half-maximal activity concentration (AC50) under setting [1] was 3.16 µM [rising, full curve] [measured here: IkB-luc green channel].

Regarding `COc1ccc(OC)c(NC(=O)C2Cc3ccccc3CN2S(=O)(=O)c2ccc(F)cc2)c1` (stereo not drawn), the concentration at half-maximal activity (AC50) under setting [1] is 25.1 µM [falling, single point].

With `CCc1ccc(CNC(=O)c2cc3n(n2)CCCN(Cc2ccccc2)C3=O)cc1`, the AC50 under setting [1] was 20 µM [falling, single point].

As to `Cc1ccc(-n2ncc3c(NC(C)c4ccccc4)ncnc32)cc1` (stereo not drawn), the AC50 under setting [1] is 25.1 µM [falling, single point].

As for `c1ccc(C(c2ccccc2)N2CCN(Cc3nnnn3C3CCCC3)CC2)cc1`, the concentration at half-maximal activity (AC50) under setting [1] was 25.1 µM [falling, single point].

`COc1ccc(NC(=O)Cn2c(=O)n(Cc3ccccc3OC)c(=O)c3cccnc32)cc1Cl`: the AC50 under setting [1] is 25.1 µM [falling, single point].

For the compound `COC(=O)CSc1nnc(CNc2ccc(F)cc2)o1`, the AC50 under setting [1] was 12.6 µM [falling, partial curve].

`COc1ccc(C2(Nc3cccc(F)c3)C(=O)c3ccccc3C2=O)cc1`: under setting [1], the AC50 was 0.398 µM [falling, partial curve, poor fit].

Take `COCCNC(=O)C1CCN(C(=O)c2cc3sccc3n2Cc2ccc(Cl)cc2)CC1`: under setting [1], the AC50 was 0.398 µM [falling, partial curve].

As for `O=C(c1nnc(Cc2ccc(Cl)cc2)o1)N1CCOCC1`, the AC50 under setting [1] is 6.31 µM [rising, single point].

For `COc1ccccc1CCNC(=O)Cc1ccc(NC(=O)N2CCSc3ncccc32)cc1`, under setting [1], the AC50 is 39.8 µM [falling, single point].

On to `Cc1ccc2oc(-c3ccc(Cl)c(NC(=O)Cc4ccccc4)c3)nc2c1`, for which the AC50 under setting [1] was 20 µM [falling, single point].

Consider `CCCNS(=O)(=O)c1cc(-c2nn3c(C)nnc3c3ccccc23)ccc1C`, for which the AC50 under setting [1] was 10 µM [rising, partial curve] [measured here: IkB-luc green channel].

Take `CC(=O)N1CCCc2cc(S(=O)(=O)N3CCCC(C(=O)NCc4ccccc4Cl)C3)ccc21` (stereo not drawn): the AC50 under setting [1] is 2.51 µM [falling, partial curve, poor fit].

With `CCOc1ccccc1NC(=O)C1CCN(S(=O)(=O)c2ccc3[nH]c(=O)oc3c2)CC1`, the concentration at half-maximal activity (AC50) under setting [1] was 25.1 µM [falling, single point].

Take `O=C(NCCN1CCN(c2ccccc2F)CC1)C1c2ccccc2C(=O)N2CCc3ccccc3C12` (stereo not drawn): the AC50 under setting [1] is 10 µM [falling, partial curve].

Regarding `CC(C)(C)c1ccc(OCc2nc3ccccc3n2CCOc2ccccc2)cc1`, the AC50 under setting [1] was 20 µM [falling, partial curve].

With `Cc1cccc(NC(=O)CSc2ncc(-c3ccccc3)[nH]2)c1C`, the AC50 under setting [1] was 10 µM [falling, partial curve].

Consider `CCC(C(=O)NCCc1ccccc1)n1nc(C)c2sc3ccccc3c2c1=O` (stereo not drawn), for which the AC50 under setting [1] is 3.98 µM [falling, partial curve].

On to `CC(C)Nc1c(N)c(=O)oc2ccccc12`, for which the AC50 under setting [1] is 10 µM [falling, partial curve].

As for `COCCn1nnnc1C(c1cc2cc(C)cc(C)c2[nH]c1=O)N1CCN(c2ccccc2F)CC1` (stereo not drawn), the AC50 under setting [1] is 10 µM [falling, partial curve].

With `COc1ccc(-c2cc(C(=O)NCc3ccccc3)no2)cc1OC`, the AC50 under setting [1] was 1.26 µM [falling, full curve].

For the compound `Cc1ccc(N2C(=O)c3n[nH]c(C)c3C2c2ccc(Cl)cc2)cc1` (stereo not drawn), the half-maximal activity concentration (AC50) under setting [1] was 25.1 µM [falling, partial curve].

Consider `Cc1ccc(CNC(=O)c2nn(-c3ccc(Cl)cc3)nc2CO)cc1`, for which the AC50 under setting [1] is 0.126 µM [rising, full curve].

Turning to `CCOC(=O)c1[nH]c2c(c1Cc1ccccc1OC)C(=O)CC(c1ccc(OC)cc1)C2` (stereo not drawn), under setting [1], the AC50 was 3.16 µM [falling, full curve].

Consider `CCOc1ccc(C2=CS/C(=C(\C#N)c3nnc4n3CCCCC4)N2CC)cc1`, for which, under setting [1], the AC50 is 20 µM [falling, partial curve].

As for `CCOC(=O)c1ccccc1NC(=O)Cn1ncc2c1-c1ccccc1OC2`, the AC50 under setting [1] is 20 µM [falling, single point].

As to `Cc1ccc(NC(=O)Cn2nc(C(F)(F)F)c3c2CCCC3)cc1C`, under setting [1], the AC50 is 15.8 µM [falling, single point].

As for `N=C1N=C(N)c2cc3ccccc3cc21`, the AC50 under setting [1] was 39.8 µM [rising, partial curve] [measured here: IkB-luc green channel].

With `Cc1ccsc1C=Nc1ccc(O)cc1`, the AC50 is 3.98 µM [rising, single point] (measured here: IkB-luc green channel) and 20 µM [falling, partial curve] (measured here: control luc red channel).

For the compound `CCc1ccccc1NS(=O)(=O)c1ccc2nc(-c3ccccc3)[nH]c2c1`, the AC50 under setting [1] was 10 µM [falling, partial curve].

`CC(C)OCCCNC(=O)C(=O)Nc1c2c(nn1-c1ccccc1)CS(=O)(=O)C2`: the AC50 under setting [1] was 5.01 µM [rising, full curve, poor fit].

As for `CCOc1ccc2[nH]c(=O)c(C(c3nnnn3Cc3ccco3)N3CCCC(C)C3)cc2c1` (stereo not drawn), the AC50 under setting [1] was 25.1 µM [falling, partial curve].

On to `Cc1ccc2c(c1)N(CC(=O)NCCc1ccccc1)C(=O)CO2`, for which, under setting [1], the AC50 is 0.2 µM [rising, full curve, poor fit].

Take `COc1ccccc1Nc1nc(N)nc(CN2CCC(Cc3ccccc3)CC2)n1`: under setting [1], the AC50 is 12.6 µM [falling, partial curve, poor fit].

On to `COc1ccc(-c2nc3ccccc3n3c(-c4cccc(C)c4)c4c(=O)n(C)c(=O)n(C)c4c23)cc1OC`, for which the concentration at half-maximal activity (AC50) under setting [1] is 12.6 µM [falling, partial curve].

For the compound `CC1CCN(S(=O)(=O)c2ccc(NC(=O)c3cccs3)cc2)CC1`, the AC50 under setting [1] was 25.1 µM [falling, partial curve].

`O=C(Cn1c(=O)n(CCc2ccccc2)c(=O)c2cccnc21)Nc1ccc(F)cc1`: the concentration at half-maximal activity (AC50) under setting [1] was 0.794 µM [falling, partial curve].

On to `CCCCNC(=O)CSc1nc2cc3c(cc2c(=O)n1CCCC(=O)NCCc1ccc(OC)c(OC)c1)OCO3`, for which the AC50 under setting [1] was 0.501 µM [rising, partial curve].

Take `CC1=C(C(=O)OC2CCCC2)C(c2c(Cl)cccc2Cl)CC(=O)N1` (stereo not drawn): the AC50 under setting [1] was 39.8 µM [falling, single point].
